# The whole screen tested about 390,000 compounds, of which about 760 (0.19%) were called active. Inconclusive means that the source gave no clear call. Such entries were picked first, then a sample of the others. The call rests on the fitted dose curve; in most records, active means well fitted inhibition curve with a large enough effect; inconclusive means small, poorly fitted or top-dose-only effect; inactive means flat fitted curve, though single readings scatter. Potencies of inconclusive entries are doubtful fits and often do not repeat.
# Test: qHTS for Inhibitors of Vif-A3F Interactions: qHTS; further: nearly all actives have a fitted effect of over 65% in size; on activity, negative = active: % of control where 0% means no effect
# Details: HeLa A3F-eYFP + Vif (tagged APOBEC3F with the HIV-1 protein that degrades it), YFP fluorescence increase; series mostly up to 46.1 µM; activity, negative = active: at the top concentration
# In short: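 Fluorescence increase (Ex 488/Em 500-530) after overnight compound treatment at 37 deg C flags inhibition of Vif-driven A3F-eYFP loss in stable HeLa A3F-eYFP/Vif cells seeded overnight beforehand.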
# Potency means the concentration at half of the fitted maximal effect.
Compound,"activity, negative = active",Potency
O=S(=O)(NC1CCCCC1N1CCCCC1)c1ccccc1 (stereo unspecified),inactive: -0.938%,
CC12CC3CC(C)(C1)CC(Nc1nc(N4CCOCC4)nc4ccccc14)(C3)C2,inactive: -5.09%,
O=c1[nH]c2ccccc2nc1/C=C/c1ccc(Cl)cc1,inactive: -0.848%,
Cc1ccc(CN(C)C(=O)c2cc(COc3cccc(C(F)(F)F)c3)on2)o1,inactive: -14.9%,
CC1(C)CCCN(Cc2c(O)ccc3c(=O)c(-c4nc5ccccc5s4)c(N)oc23)C1,inactive: -7.73%,
CCOC(=O)c1cnc2c(ccc3ccccc32)c1Nc1cccc(OC)c1,,"inconclusive: 6.31 µM [inhibitor, single point]"
CC(C)Cn1c(N)c(C(=O)COC(=O)c2cc(-c3ccco3)nc3ccccc23)c(=O)n(C)c1=O,,"inconclusive: 22.4 µM [inhibitor, single point]"
O=C1NC(=O)C2C1C(c1ccccc1)N1C3C(=O)NC(=O)C3C(c3ccccc3)N21 (stereo unspecified),inactive: 0.719%,
COc1cccc(NC(=O)CSc2ncnc3c2oc2ccccc23)c1,inactive: -6.36%,
CCS(=O)(=O)N1CCN(S(=O)(=O)c2ccccc2[N+](=O)[O-])CC1,inactive: -13.3%,
Cc1ccc2c(c1)c(N=NC(N)=S)c(O)n2Cc1ccccc1,,"inconclusive: 31.6 µM [inhibitor, single point]"
C=CC[C@H]1CC(C)=C[C@H](CC=C)N1C(=O)c1cc(COc2ccccc2SC)on1,,"inconclusive: 35.5 µM [inhibitor, single point]"
Cc1nc(/C(N)=N/OC(=O)c2c(-c3ccccc3Cl)noc2C)cs1,inactive: 2.31%,
NC(=O)c1cc2cc(Br)ccc2o/c1=N/NC(=O)c1cccc(F)c1,,"inconclusive: 35.5 µM [inhibitor, single point]"
CC(C)C[C@H](NC(=O)c1nc[nH]c1C(=O)N[C@@H](CC(C)C)C(=O)OC(C)(C)C)C(=O)OCc1ccccc1,,"inconclusive: 11.2 µM [inhibitor, partial curve]"
CCOC(=O)c1c(-c2ccccc2)csc1NC(=O)/C(C#N)=C/c1ccc(O)c(OC)c1,,"inconclusive: 5.62 µM [inhibitor, single point]"
COc1ccc(C)cc1N(C(=O)c1ccccc1F)c1nc2ccccc2s1,,"inconclusive: 5.62 µM [inhibitor, single point]"
COc1ccc(N(C)C(=O)c2cc3c(Cl)nc4ccccc4c3s2)cc1,inactive: 5.42%,
CCOC(=O)c1c(NC(=O)c2ccccc2Cl)sc2c1CCCC2,,"inconclusive: 17.8 µM [inhibitor, partial curve, poor fit]"
CC(=O)Nc1sc(C)c(C)c1C(=O)OCC(=O)N(CC(C)C)c1c(N)n(Cc2ccccc2)c(=O)[nH]c1=O,,"inconclusive: 2.82 µM [inhibitor, partial curve, poor fit]"
COc1cc(/C=N/NC(=O)c2ccncc2)ccc1Oc1ccc([N+](=O)[O-])cn1,,"inconclusive: 0.891 µM [inhibitor, full curve, poor fit]"
CC1(C)CCCN(C(=O)c2coc(=O)c(Br)c2)C1,inactive: -3.19%,

Compound,"activity, negative = active",Potency
CN(Cc1ccccc1)C(=O)C1CCN(S(=O)(=O)Cc2ccccc2)CC1,inactive: -12.4%,
O=C(Nc1ccnc(-c2ccncc2)n1)c1ccc(Cl)cc1,,"inconclusive: 6.31 µM [inhibitor, single point]"
COC(=O)c1ccc(CCc2cc(O)c(Br)cc2O)cc1,inactive: -29.3%,
Cc1oc(/N=C/c2ccccc2)c(C#N)c1C,inactive: 3.45%,
Cc1cc(C)c(CN2CCN(C(=O)Cn3ccc(NC(=O)OCc4ccccc4)nc3=O)CC2)c(C)c1,,"inconclusive: 25.1 µM [inhibitor, partial curve, poor fit]"
Cc1cccc(NC(=O)CCOc2ccccc2)c1C,,"inconclusive: 25.1 µM [inhibitor, single point]"
O=[N+]([O-])c1ccc(/C=N/Nc2ccnc3cc(Cl)ccc23)o1,,"inconclusive: 3.55 µM [inhibitor, single point]"
N=c1c(S(=O)(=O)c2ccccc2)cc2c(=O)n3ccccc3nc2n1Cc1ccco1,inactive: 2.3%,
CCc1ccc(CN(Cc2cn[nH]c2-c2ccc(OC)cc2)C(=O)Nc2ccc(C)c(F)c2)cc1,inactive: -19.3%,
CC(C)(C)c1ccc(C(CC(=O)O)NC(=O)Cc2ccccc2)cc1 (stereo unspecified),,"inconclusive: 35.5 µM [inhibitor, single point]"
O=C(N/N=C/c1ccc[nH]1)c1cc2ccccc2cc1O,,"inconclusive: 3.16 µM [inhibitor, single point]"
C#CCn1cc(C=C2C(=O)c3ccccc3C2=O)c2ccccc21,,"inconclusive: 17.8 µM [inhibitor, single point]"
COc1cc(/C=N/NC2=NS(=O)(=O)c3ccccc32)ccc1OC(C)=O,,"inconclusive: 35.5 µM [inhibitor, single point]"
CC(=O)c1ccc(NS(=O)(=O)c2ccc(N/C=C/C(=O)c3ccc(F)cc3)cc2)cc1,,"inconclusive: 35.5 µM [inhibitor, single point]"
O=C(O)C1=NN(c2ccccc2)C(=O)CC1,,"inconclusive: 7.08 µM [inhibitor, partial curve, poor fit]"
O=[N+]([O-])c1cc(-c2ccc(C(=S)N3CCOCC3)o2)ccc1Cl,inactive: 0.0325%,
CCN1C(=O)/C(=C/c2cn(-c3ccccc3)nc2-c2cccnc2)SC1=S,,"inconclusive: 11.2 µM [inhibitor, partial curve, poor fit]"
Cc1ccc(-n2c(O)c(C=Nc3ccccc3-c3n[nH]c(=S)[nH]c3=O)c3ccccc3c2=O)c(C)c1,inactive: -9.06%,
CNc1ccc(Br)cc(C(=O)/C=C/c2ccc3c(c2)OCO3)c1=O,,"inconclusive: 35.5 µM [inhibitor, single point]"
Cc1cc(C)c(NC(=S)N(CCN(C)C)Cc2cccs2)c(C)c1,inactive: -4.26%,
O=C(Nc1ccc(-c2csc(Nc3cccc(C(F)(F)F)c3)n2)cc1)c1ccccc1,,"inconclusive: 28.2 µM [inhibitor, single point]"
CC(=O)Nc1ccc(C(=O)CSc2nc3ccccc3n2CC(=O)N2CCCC2)cc1,inactive: -0.881%,

Compound,"activity, negative = active",Potency
CCn1c(SCC(=O)O)nnc1-c1ccccc1OC,,"inconclusive: 3.16 µM [inhibitor, single point]"
CC(C)[C@H](NC(=O)[C@@H]1Cc2ccccc2CN1C(=O)OC(C)(C)C)C(=O)NCc1ccco1,,"inconclusive: 7.08 µM [inhibitor, partial curve, poor fit]"
Nc1c(C(=O)c2ccc(Cl)cc2)sc2nsc(SCCN3CCOCC3)c12,,"inconclusive: 3.55 µM [inhibitor, partial curve, poor fit]"
O=C(NC(=S)NC1CCCCC1)c1ccc(Cl)cc1,,"inconclusive: 12.6 µM [inhibitor, partial curve, poor fit]"
Cc1ccc(C(=O)O)cc1Nc1nc2ccccc2n2nnnc12,,active: 11.2 µM
N#CCCN(C(=S)Nc1ccc(S(=O)(=O)N2CCOCC2)cc1)c1ccccc1F,,"inconclusive: 6.31 µM [inhibitor, single point]"
COc1cccc(C(=O)NCC(=O)OCC(=O)Nc2ncc(Cl)cc2Cl)c1,,"inconclusive: 3.16 µM [inhibitor, partial curve, poor fit]"
Cc1ccc2oc(/N=C(\N)NC(=O)C(C)(C)C)nc2c1,,active: 22.4 µM
CCC(=O)Nc1ccccc1-c1nc2ccccc2n(C(CC)C(=O)Nc2cccc(C(C)=O)c2)c1=O (stereo unspecified),,"inconclusive: 15.8 µM [inhibitor, partial curve, poor fit]"
COCCn1c(=NC(=O)c2cc3ccccc3oc2=O)sc2cc(S(N)(=O)=O)ccc21,,"inconclusive: 25.1 µM [inhibitor, single point]"
Cc1nonc1C1CCCN1Cc1cn[nH]c1-c1ccc2c(c1)OCO2 (stereo unspecified),,"inconclusive: 28.2 µM [inhibitor, partial curve, poor fit]"
Cc1cc2oc(C(=O)N(Cc3ccccc3)C3CCS(=O)(=O)C3)c(C)c2cc1C (stereo unspecified),,"inconclusive: 3.16 µM [inhibitor, partial curve, poor fit]"
Cc1cccc(N2C(S)=C(C#N)C(=O)NC2c2ccco2)c1 (stereo unspecified),,"inconclusive: 25.1 µM [inhibitor, single point]"
COc1ccc(C2C(C#N)=C3NC(=O)c4c(sc5c4CCCCC5)N3C3=C2C(=O)CC(C)(C)C3)cc1 (stereo unspecified),,"inconclusive: 17.8 µM [inhibitor, single point]"
Cc1ccc(N(C(=O)Cn2nnc(-c3ccc(F)cc3)n2)C(CC(C)C)C(=O)NCC2CCCO2)cc1 (stereo unspecified),inactive: -3.62%,
CCC(C)NC(=S)N1CCN(C)CC1 (stereo unspecified),,"inconclusive: 35.5 µM [inhibitor, single point]"
NC1=NC(=O)/C(=C/c2cc(Br)c(O)c(Br)c2)S1,,"inconclusive: 12.6 µM [inhibitor, partial curve]"
COC(=O)C(Cc1ccc(O)cc1)NC(=O)C(C)NC(=O)c1ccc(C(C)(C)C)cc1 (stereo unspecified),,"inconclusive: 8.91 µM [inhibitor, partial curve, poor fit]"
CC(C)CN(C(=O)COC(=O)COc1ccc2ccccc2c1)c1c(N)n(Cc2ccccc2)c(=O)[nH]c1=O,,"inconclusive: 31.6 µM [inhibitor, single point]"
CN1/C(=C\C=C2/SC(=S)N(CC(=O)O)C2=O)C(C)(C)c2ccccc21,,"inconclusive: 3.16 µM [inhibitor, full curve, poor fit]"
COCCN=c1scc(-c2cccs2)n1/N=C/c1ccc(O)c(O)c1O,,"inconclusive: 20 µM [inhibitor, single point]"
O=C(NC(=S)Nc1nc2ccccc2s1)c1ccco1,,"inconclusive: 2.24 µM [inhibitor, full curve, poor fit]"

# Part of the list above in order of length of the SMILES, descending:
Compound,"activity, negative = active",Potency
COc1ccc(C2C(C#N)=C3NC(=O)c4c(sc5c4CCCCC5)N3C3=C2C(=O)CC(C)(C)C3)cc1 (stereo unspecified),,"inconclusive: 17.8 µM [inhibitor, single point]"
COc1cccc(C(=O)NCC(=O)OCC(=O)Nc2ncc(Cl)cc2Cl)c1,,"inconclusive: 3.16 µM [inhibitor, partial curve, poor fit]"
O=C(NC(=S)NC1CCCCC1)c1ccc(Cl)cc1,,"inconclusive: 12.6 µM [inhibitor, partial curve, poor fit]"

# Reference: PubChem BioAssay AID602313 (National Center for Advancing Translational Sciences (NCATS), 2012)
